Library screen at single concentrations

Source: ChEMBL document CHEMBL3988442, “University of Dundee, Small-Polar-MMV Screening Library” (2021).

Toxoplasma: 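Assay of Toxoplasma gondii numbers, read through their beta-galactosidase reporter with a colour substrate. Tested at 10 µM. Higher reads as fewer parasites (inferred from which compounds were picked for retests). About 67,000 compounds were tested under these conditions; 0.38% (about 260) showed 50% or more at least once.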
T. brucei: 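Whole-parasite assay of Trypanosoma brucei over 72 hours; the read-out is not stated. Tested at 30 µM. The record gives no direction; compounds that gave an IC50 in retests scored well above the rest, so higher reads as stronger inhibition. Values scatter widely below zero; nearly all retest evidence comes from the higher of the two concentrations used. About 64,000 compounds were tested under these conditions; 1.5% (about 940) showed 50% or more at least once.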
Leishmania in macrophages: 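Cell assay of Leishmania donovani living inside macrophages; the read-out is not stated. Compounds at 30 µM. Higher reads as stronger inhibition (inferred: compounds with an IC50 in retests scored well above the rest). Of about 69,000 compounds tested this way, about 1,000 (1.5%) reached 50% or more in at least one test.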

Results are given as percent effect.
The record does not define 0% and 100%; most values in the screen are far below 50% and negative numbers occur (in some assays of this library far below -100).
Compounds were drawn at random from those tested, without regard to their results.
Two or more numbers in one place are separate tests of the same structure; such repeats can differ widely.

For Cn1cc(Br)cc(NC(=O)CC(C)(C)C)c1=O the result was Toxoplasma: 3.786%; T. brucei: -46.43%; Leishmania in macrophages: -14.34%. CSCCC(=O)N1CCN(CC(O)C(C)(C)C)CC1 (stereo not shown) read Toxoplasma: 10.48%; T. brucei: -43.56%; Leishmania in macrophages: -24.79%. With N#Cc1cccc(Oc2ccc(CN3CCCC3)cc2Cl)n1 the screen gave Toxoplasma: -12.24%; T. brucei: -7.023%; Leishmania in macrophages: 25.06%. With NC(=O)C1CCN(c2nccc(-c3c[nH]nc3C3CCCCC3)n2)CC1 the screen gave Toxoplasma: 46.75%; T. brucei: 100.2%; Leishmania in macrophages: 6.349% & 16.69%. For COCc1nc(N(C)C/C=C/c2ccccc2)c2cnn(C)c2n1 the result was Toxoplasma: 6.25%; T. brucei: -17.16%; Leishmania in macrophages: 9.666%.

With Cn1ccc2c(C(=O)N3CCN(C(=O)C4CCCC4)CC3)cccc21 the screen gave Toxoplasma: 0.3516%; T. brucei: -0.9219%; Leishmania in macrophages: 0.6095%. For Cc1cc(NC(=O)CCN2CCCCC2Cn2cccn2)no1 (stereo not shown) the result was Toxoplasma: 5.92%; T. brucei: 16.91%; Leishmania in macrophages: 31.64%. With Cc1ccc(N2CC3(COCCN(Cc4ccccn4)C3)OCC2=O)s1.O=C(O)C(F)(F)F.O=C(O)C(F)(F)F (stereo not shown) the screen gave Toxoplasma: -12.08%; T. brucei: -53.86%; Leishmania in macrophages: -4.598% & -22.77%. O=C(C1CCC1)N1CCC2(CCN(Cc3cccc(F)c3)CC2)CC1.O=C(O)C(F)(F)F gave Toxoplasma: -2.463%; T. brucei: -10.05%; Leishmania in macrophages: -22.49%. CNC(=O)c1ccc(C(=O)N2CCCC2c2cnn(C)c2)cn1 (stereo not shown) read Toxoplasma: -4.457%; T. brucei: 17.8%; Leishmania in macrophages: -4.774%.

Clc1ccc(-c2nnc(CNCCn3cccn3)o2)c(Cl)c1 read Toxoplasma: 13.97%; Leishmania in macrophages: -9.629%. With CC(NC(=O)Nc1cccnc1N1CCCC1)c1nncn1C (stereo not shown) the screen gave Toxoplasma: 11.66%; T. brucei: 8.476%; Leishmania in macrophages: -6.689%. CC(O)CN1CCN(Cc2nnc(C3CC3)o2)CC1 (stereo not shown) gave T. brucei: -24.78%; Leishmania in macrophages: 22.16%. COc1ccc(OC)c(C(=O)N(C)Cc2nnc3ccccn23)c1 read Toxoplasma: 1.685%; Leishmania in macrophages: 14.72%. Result for COc1ccc(C(C(=O)O)N2CCC(O)(c3cccnc3)CC2)cc1F (stereo not shown) was Toxoplasma: 16.97%; T. brucei: -22.57%; Leishmania in macrophages: 5.319%.

Result for Cc1cc(C(=O)N2CCCC2c2nnc3n2CCCCC3)on1 (stereo not shown) was Toxoplasma: 7.094%; Leishmania in macrophages: 34.8%. Cc1ccc(CNC(=O)C2CCN(C(=O)c3ccco3)CC2)n1C gave Toxoplasma: -0.6952%; T. brucei: -6.923%; Leishmania in macrophages: -2.169%. CCN1CCC2(CC1)CC(NC(=O)N(C)C)c1cc(C)ccc12.O=C(O)C(F)(F)F (stereo not shown) gave Toxoplasma: -2.03%; T. brucei: 35.82%; Leishmania in macrophages: 34.45%. COc1ccccc1OC1CCN(C(=O)c2c[nH]c(=O)[nH]c2=O)CC1 read Toxoplasma: -6.314%; T. brucei: -10.23%; Leishmania in macrophages: 9.612%. Result for O=C(NCC1CC1)C1CN(C(=O)c2ccnnc2)CC12CCOCC2 (stereo not shown) was Toxoplasma: -10.16%; T. brucei: -19.22%; Leishmania in macrophages: -5.848% & 22.95%.

CCN(CC)S(=O)(=O)N1CCCC(c2nccn2Cc2cccnc2)C1 (stereo not shown) gave Toxoplasma: 6.45%; T. brucei: -5.668%; Leishmania in macrophages: -15.12%. COc1ccc2c(c1)C(=O)NC1(CC2)CCN(Cc2ccncc2)C1 (stereo not shown) gave Toxoplasma: -36.21%; T. brucei: -13.53%; Leishmania in macrophages: 17.07%.

Once more, the final 2:

SMILES,Toxoplasma,T. brucei,Leishmania in macrophages
CCN(CC)S(=O)(=O)N1CCCC(c2nccn2Cc2cccnc2)C1 (stereo not shown),6.45%,-5.668%,-15.12%
COc1ccc2c(c1)C(=O)NC1(CC2)CCN(Cc2ccncc2)C1 (stereo not shown),-36.21%,-13.53%,17.07%